Data as given in PubChem BioAssay AID686937 (Drosophila RNAi Screening Center, 2013).

Screen: 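Genes in the fly needed for secretion of protein constitutively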 (primary screen)
System: Drosophila S2 cells expressing secreted horseradish peroxidase
Reagent: long dsRNA against Drosophila genes
Timing: about 5.5 days (5 days dsRNA, then 12 h reporter induction)
Treatment: reporter expression induced after 5 days of dsRNA, read 12 h later; inducer not stated
Read-out: 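After 5 days of dsRNA and 12 h of reporter induction, medium peroxidase read by chemiluminescence and scored as per-plate z-score; higher values mean more reporter released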
Direction: z-score: higher = more reporter secreted into medium
The deposit covers about 23,000 reagents; below is an unselected part of those that have a named target and a result. 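Reduced-secretion tags in replicate 1 do not always agree with the z-scores; no criterion for assigning the tags was given.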 A plus sign joins genes that one reagent is predicted to hit. Not all columns of the deposit are shown. Reagent sequences are not shown. Not given: the amount of reagent.

gene knocked down	DRSC id	z-score, replicate 1
CG13989 (GeneID 33869)	DRSC02321	0.22
Argk2 (GeneID 39040)	DRSC10483	0.47
VhaSFD (GeneID 34997)	DRSC03471	0.23
or (GeneID 43943)	DRSC04329	0.19
CG32708 (GeneID 318161)	DRSC18411	-0.47
Akt (GeneID 41957)	DRSC14108	0.19
I-2 (GeneID 39156)	DRSC11194	0.42
Send1 (GeneID 33407)	DRSC00482	0.2
bsf (GeneID 35100)	DRSC02035	0.41
CG4884 (GeneID 43357)	DRSC15671	0.31
jumu (GeneID 41265)	DRSC16651	-0.89
Ugt303B1 (GeneID 42775)	DRSC15141	0.48
CG32547 (GeneID 3346150)	DRSC19263	-0.01
CG32547 (GeneID 3346150)	DRSC19265	-0.13
CG32547 (GeneID 3346150)	DRSC19474	0.37
CG32547 (GeneID 3346150)	DRSC19626	0.23
side-III (GeneID 4379844)	DRSC12155	0.4
side-III (GeneID 4379844)	DRSC12263	-0.42
side-III (GeneID 4379844)	DRSC12264	0.15
CG14499 (GeneID 37086)	DRSC06470	0.12
CG14853 (GeneID 41771)	DRSC14977	0.32
CG14853 (GeneID 41771)	DRSC21528	-0.99
CG3760 (GeneID 37987)	DRSC04415	0.68
PK2-R1 (GeneID 41639)	DRSC16447	0.29
Sec5 (GeneID 33563)	DRSC00714	0.31
TkR99D (GeneID 43551)	DRSC16881	-0.03
chif (GeneID 34974)	DRSC03508	-0.97
Lasp (GeneID 39864)	DRSC10379	0.7
Jheh2 (GeneID 37181)	DRSC06530	0.24
SLC22A (GeneID 40437)	DRSC11826	0.2
SLC22A (GeneID 40437)	DRSC11827	0.21
SamDC (GeneID 34396)	DRSC03429	0.27
CG15347 (GeneID 31779)	DRSC18031	0.18
CR42545 (GeneID 8674105)	DRSC03709	0.11
CG14109 (GeneID 39512)	DRSC10112	0.4
gry (GeneID 38391)	DRSC08028	-0.49
gry (GeneID 38391)	DRSC08518	-0.47
CG15115 (GeneID 37192)	DRSC06537	0.62
Alg14 (GeneID 32479)	DRSC19983	0.47
Ocrl (GeneID 31157)	DRSC18576	-0.09
Ugt305A1 (GeneID 59217)	DRSC08541	0.11
mtsh (GeneID 34141)	DRSC03070	0.38
CG6429 (GeneID 36893)	DRSC06986	0.62
CG15399 (GeneID 33472)	DRSC00413	0.21
sc (GeneID 30982)	DRSC18830	0.41
Pld3 (GeneID 35384)	DRSC03167	0.07
CG15570 (GeneID 31366)	DRSC18058	0.41
Yod1 (GeneID 38603)	DRSC10433	0.19
CG15024 (GeneID 50172)	DRSC08478	0.4
Cftr (GeneID 42928)	DRSC15872	0.29
Hsc70-1 (GeneID 39542)	DRSC11185	-0.85
CG15530 (GeneID 43589)	DRSC15067	0.33
CG34183 (GeneID 5740752)	DRSC01099	0.13
D19B (GeneID 38717)	DRSC11134	-0.28
CG3803 (GeneID 37809)	DRSC04420	0.01
Drsl4 (GeneID 317954)	DRSC08034	0.06
CG10286 (GeneID 40786)	DRSC12520	0.18
CG34461 (GeneID 5740547)	DRSC10767	0.56
Nf-YA (GeneID 39091)	DRSC10385	-3.39
CG14565 (GeneID 40423)	DRSC11726	0.22
CG30110 (GeneID 246462)	DRSC05686	-0.24
CG11438 (GeneID 40469)	DRSC11660	0.35
CG15547 (GeneID 43661)	DRSC15085	0.3
CG30083 (GeneID 246444)	DRSC05572	-0.13
Rpt5 (GeneID 42805)	DRSC16842	-5.32
CG11345 (GeneID 38548)	DRSC08176	0.33
Adgf-E (GeneID 36627)	DRSC05973	0.04
Sps1 (GeneID 36587)	DRSC07549	-0.77
CG13442 (GeneID 37349)	DRSC06402	0.43
CG1806 (GeneID 32163)	DRSC19787	0.16
CG14567 (GeneID 40420)	DRSC11728	0.12
CG42366 (GeneID 34319)	DRSC02760	0.76
Klp64D (GeneID 38611)	DRSC11204	0.37
Not1 (GeneID 5740252)	DRSC06787	-1.86
Not1 (GeneID 5740252)	DRSC06794	-1.87
CG13063 (GeneID 39797)	DRSC09946	0.29
CG13155 (GeneID 36346)	DRSC06280	0.45
Bap111 (GeneID 31846)	DRSC18419	-1.11
Patr-1 (GeneID 42058)	DRSC14159	-0.21
CG9757 (GeneID 41662)	DRSC16557	0.43
CG9757 (GeneID 41662)	DRSC21707	0.93
iotaTry (GeneID 36223)	DRSC07634	0.24
CG10814 (GeneID 36481)	DRSC06004	0.24
Cka (GeneID 34096)	DRSC03476	0.34
Cka (GeneID 34096)	DRSC22858	-2.07
CG31516 (GeneID 318776)	DRSC11994	0.45
Mnr (GeneID 33098)	DRSC20549	0.23
Mnr (GeneID 33098)	DRSC20550	0.58
Mnr (GeneID 33098)	DRSC22441	-0.55
HP1e (GeneID 41108)	DRSC16379	0.37
CG42262 (retired record) (GeneID 50410)	DRSC17628	0.15
CG42262 (retired record) (GeneID 50410)	DRSC17974	0.34
His2B:CG33894 + His2B:CG33872 + His2B:CG33902 + 20 more	DRSC21265	-3.34
KLHL18 (GeneID 41458)	DRSC15496	0.15
ms(3)K81 (GeneID 43232)	DRSC14746	0.4
lncRNA:CR32835 (GeneID 12798142)	DRSC22693	0.32
heph (GeneID 48571)	DRSC14082	0.16
heph (GeneID 48571)	DRSC14085	0.26
heph (GeneID 48571)	DRSC15436	0.25
heph (GeneID 48571)	DRSC16783	0.26
Ir94g (GeneID 42768)	DRSC15231	0.36
Bdbt (GeneID 42503)	DRSC15218	0.04
Nsun2 (GeneID 45064)	DRSC18662	0.35
dock (GeneID 33262)	DRSC00812	0.38

Ordered by “z-score, replicate 1” (lowest first): 6 of the entries above.
gene knocked down	DRSC id	z-score, replicate 1
jumu (GeneID 41265)	DRSC16651	-0.89
Send1 (GeneID 33407)	DRSC00482	0.2
CG4884 (GeneID 43357)	DRSC15671	0.31
bsf (GeneID 35100)	DRSC02035	0.41
I-2 (GeneID 39156)	DRSC11194	0.42
Ugt303B1 (GeneID 42775)	DRSC15141	0.48
